Measured values taken from paper PMC11381337.

By UniProt entry, the sequences of proteins in these tests, tags left out. Where a name states a change or a piece, a line headed by the entry shows the natural chain unless it says otherwise.
UniProt Q22618: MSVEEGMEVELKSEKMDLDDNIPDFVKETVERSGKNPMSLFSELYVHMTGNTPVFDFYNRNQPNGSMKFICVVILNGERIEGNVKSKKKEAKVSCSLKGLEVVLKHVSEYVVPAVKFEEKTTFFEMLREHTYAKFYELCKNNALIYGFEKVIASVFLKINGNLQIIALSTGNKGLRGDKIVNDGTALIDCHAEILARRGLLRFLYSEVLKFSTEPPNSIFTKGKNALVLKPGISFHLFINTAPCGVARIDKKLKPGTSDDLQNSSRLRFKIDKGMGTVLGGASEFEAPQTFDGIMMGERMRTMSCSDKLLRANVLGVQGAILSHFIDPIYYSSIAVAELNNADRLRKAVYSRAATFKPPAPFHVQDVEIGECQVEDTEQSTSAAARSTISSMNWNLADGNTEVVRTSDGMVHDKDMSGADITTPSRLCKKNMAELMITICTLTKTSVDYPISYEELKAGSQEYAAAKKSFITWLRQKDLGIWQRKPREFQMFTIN
UniProt Q9N5V3: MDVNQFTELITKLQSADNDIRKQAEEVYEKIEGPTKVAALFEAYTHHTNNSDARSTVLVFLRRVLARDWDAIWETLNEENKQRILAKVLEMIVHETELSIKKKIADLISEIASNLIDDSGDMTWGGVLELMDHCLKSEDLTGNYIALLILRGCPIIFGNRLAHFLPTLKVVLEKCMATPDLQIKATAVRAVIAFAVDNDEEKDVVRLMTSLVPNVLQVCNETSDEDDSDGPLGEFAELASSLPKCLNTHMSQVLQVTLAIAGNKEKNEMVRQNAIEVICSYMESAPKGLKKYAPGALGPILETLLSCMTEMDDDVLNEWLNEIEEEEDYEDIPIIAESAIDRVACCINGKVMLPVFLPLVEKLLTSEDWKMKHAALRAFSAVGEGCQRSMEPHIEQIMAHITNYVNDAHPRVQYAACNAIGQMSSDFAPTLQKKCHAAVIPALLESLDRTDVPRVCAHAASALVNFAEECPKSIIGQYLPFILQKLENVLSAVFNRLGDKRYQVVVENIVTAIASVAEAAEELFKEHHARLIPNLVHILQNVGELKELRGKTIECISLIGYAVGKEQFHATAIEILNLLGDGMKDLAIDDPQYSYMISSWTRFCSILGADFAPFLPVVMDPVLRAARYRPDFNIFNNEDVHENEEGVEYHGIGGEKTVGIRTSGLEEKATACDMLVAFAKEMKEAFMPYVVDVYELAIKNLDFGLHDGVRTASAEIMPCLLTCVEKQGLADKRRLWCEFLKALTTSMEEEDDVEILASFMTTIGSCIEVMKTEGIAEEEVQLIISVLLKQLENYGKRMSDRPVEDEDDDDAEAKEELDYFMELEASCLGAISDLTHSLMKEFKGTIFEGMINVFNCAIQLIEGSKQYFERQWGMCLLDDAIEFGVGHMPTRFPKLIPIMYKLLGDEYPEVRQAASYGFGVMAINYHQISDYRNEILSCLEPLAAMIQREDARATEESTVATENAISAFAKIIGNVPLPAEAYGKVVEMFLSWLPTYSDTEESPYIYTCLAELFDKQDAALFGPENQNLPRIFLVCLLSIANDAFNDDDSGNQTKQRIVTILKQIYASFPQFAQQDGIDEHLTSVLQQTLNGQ

B1: ADBP-1 (ADR-2 Binding Protein 1) (protein, UniProt G5EDW1 1-217)
chain: MSFASGCTPVSFDKLFEVSSGDKVSRENWGMIARPEPQHDSLKRRNTTSSIAKKKAKMTRGDEQITDETARKAATQLLDQIQDTPGRISLNFETPEAASVCPIPTSLNQIVNTKWTVNQLQEGQLTMLLAQDANKFKSLGVKNIKKGSVETQILPRQMDVKEIVEKLKKQDNDSDQFVGYAAAVANVLRRCDAETAQKITQAITATIEKEAPSIVNC
B2: IMA-3 (protein, UniProt Q19969 1-514)
chain: MSSNRQAYYKNNAKEQIGKEKRNEEVVSIRKDKREEAISKRRNINTQIEDDSETSTTPPGPFDANLLRLTVAAAQSSDPAEQLTAVQQARKMLSTDRNPPIDDLIGSGILPVLVQCLSSTDPNLQFEAAWALTNIASGTSEQTQAVVNAGAVPLFLQLLSCGNLNVCEQSVWALGNIIGDGPHFRDYCLELGILQPLLQFINPEIPIGFLRNVTWVIVNLCRCKDPAPSPAVVRTILPALSLLIHHQDTNILIDTVWALSYLTDGGNEHIQMVIEAQVVTHLVPLLGHVDVKVQTAALRAVGNIVTGTDEQTQLVLDSGVLRFMPGLLAHYKEKINKEAVWFVSNITAGNQQQVQDVFDAGIMPMIIHLLDRGDFPTQKEAAWAISNVTISGRPNQVEQMVKLGVLRPFCAMLSCTDSQIIQVVLDGINNILKMAGEAAEQVTSEIEECGGLDKIENLQNHENEDIYKLAFEIIDNFFSSDDETGNVEGAQSSAFGGDVPPVPDAPNGGWNFGK
B3: ADR-1 (protein, UniProt Q9U3D6 1-964)
chain: MDQNPNYNFGYGQAYGSGTDHTSDSTNNYNWASQWSQPESAASLATHTFPQYVSQQQQQQQQQAQQQAQNTYAAMNPISTFMQQQQRAQTFPQKKYGQQGGAPKPSAIRNNNFGAFGGGHALSQEWVQPMSQNQMGGPQGNRFFNNQKGGPFNQNKPNWRQNKPKGPAAPKKFDSTGKSPAMLLHELFKDVSEEYTEVEGVPKKYCCTLKVNGRTFQMESVNKKAAKQKCSELVVRDLRPDVHVTPFEEGVAAKAAAPVKKEIDAASGNGQNNKRNLLQADAISNQPTPKKVSAVKKAKLQLTPVESALSLLDLMQKIIAESAEKYSPVFEASEVPKDPEIPEVEVKKEEVDTNGENVANEKKSGWRKNETMHNVTLKFVEQNKQYTKMGPSRGVLKDMVIREALRDLFNVSHADITTVARRHASNRLGHDTTILQCLNTICSILNCTLTIECEPAEDRPLGIGRAYFMAKCTIIDHNENDLKFEVKSSSLASKAMAKDWVAQETLKNYFAIDPSSCVKTDAVSSQGPCALLHAMLNKQTKQKCKIAYEFKDNVPPVAGQATTTFYCECVIDETDRYIGVGRSKKLAKSEAAMQALKKLFKIDYDPAGNYPLALTSRAMTESKVSPLCRHIAEFCKREYHQMTEYYQIPPSNLFAAFLLVNAQEEKRVLAMGSSIQYIVEPDTLSGANGTSLLHLDAIILARRAMLKAFIHELSTVDSECSIFEKKEEGKAALKPNLRLVLYSNYSPPCIHAVDDAATKKLSYVTPTNLTCVPDDVLTYEQIKETKSLRVHCTADKLFKWNTLGIQGALLSNVLHPIFIDNIFFGSEAPVSDESLSYALQGRLGPNENEREIIVESMPVQMRMHMGISHLWHRGVDSVETLDYNTGRTSKGSPSRVCKAEIFEAYRKLNGVDQAVVNYAKAKEMASEYQYEKKVFYEKLEAAGLGKWQTKPAELVDSFTLAAFD

Target: ADR-2 (C. elegans (endogenous in wild-type worms)) (UniProt Q22618)
Experiment: affinity purification with mass spectrometry; 5 mg lysate of mixed-stage wild-type worms in IP buffer (50 mM HEPES pH 7.4, 70 mM K-acetate, 5 mM Mg-acetate, 0.05% NP-40, 10% glycerol) on anti-rabbit IgG Dynabeads coated with custom ADR-2 antibody, 1 hour in the cold room; washed with 0.5 M NaCl, 160 mM Tris-HCl pH 7.5; on-bead digestion and LC-MS/MS

binding, binds:
IMB-3 (from UniProt Q9N5V3)
B1
B2
B3

Results are given in words; binding and its absence hold for the method and conditions named. Binding seen in cells or lysates may run through a third protein. A yes stands for co-enrichment or nearness to the bait. Other partners may have been found.
